Experimental data: the supplement of paper PMC10849652
The other results are listed elsewhere or left out.

Chains of the proteins cited; added tags and fusions are not shown. Lines headed by an entry give the natural chain unless they say otherwise; changes in a name come on top.
UniProt Q9BRG1: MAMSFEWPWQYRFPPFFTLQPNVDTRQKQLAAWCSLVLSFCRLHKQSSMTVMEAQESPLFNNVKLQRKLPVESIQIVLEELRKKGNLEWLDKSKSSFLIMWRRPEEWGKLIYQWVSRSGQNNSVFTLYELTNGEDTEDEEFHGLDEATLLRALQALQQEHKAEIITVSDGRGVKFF
UniProt Q01831: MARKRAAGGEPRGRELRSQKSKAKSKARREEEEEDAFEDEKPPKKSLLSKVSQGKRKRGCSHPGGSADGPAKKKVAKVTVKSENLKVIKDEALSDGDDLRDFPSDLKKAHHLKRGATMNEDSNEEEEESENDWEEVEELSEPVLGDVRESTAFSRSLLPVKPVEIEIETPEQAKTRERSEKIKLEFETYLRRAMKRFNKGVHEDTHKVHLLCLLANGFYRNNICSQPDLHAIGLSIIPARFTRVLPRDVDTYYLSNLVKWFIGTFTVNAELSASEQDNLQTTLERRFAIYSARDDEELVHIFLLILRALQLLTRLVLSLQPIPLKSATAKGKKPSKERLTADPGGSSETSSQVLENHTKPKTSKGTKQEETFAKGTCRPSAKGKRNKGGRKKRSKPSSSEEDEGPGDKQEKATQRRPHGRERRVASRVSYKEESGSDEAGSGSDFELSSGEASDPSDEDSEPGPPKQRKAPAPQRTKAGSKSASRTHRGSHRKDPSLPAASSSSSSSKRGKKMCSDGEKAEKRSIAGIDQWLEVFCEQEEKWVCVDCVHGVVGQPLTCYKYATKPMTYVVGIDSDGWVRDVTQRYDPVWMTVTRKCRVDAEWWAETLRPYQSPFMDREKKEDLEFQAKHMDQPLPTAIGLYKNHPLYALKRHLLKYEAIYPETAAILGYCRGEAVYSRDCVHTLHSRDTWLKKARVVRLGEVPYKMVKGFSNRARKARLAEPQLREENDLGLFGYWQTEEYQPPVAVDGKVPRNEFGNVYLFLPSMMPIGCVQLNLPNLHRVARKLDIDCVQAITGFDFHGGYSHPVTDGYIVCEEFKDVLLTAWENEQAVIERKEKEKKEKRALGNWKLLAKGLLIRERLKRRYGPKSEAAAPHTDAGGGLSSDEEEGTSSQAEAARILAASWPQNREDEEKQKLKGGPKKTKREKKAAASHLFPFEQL
UniProt Q14191, whole entry, looked up: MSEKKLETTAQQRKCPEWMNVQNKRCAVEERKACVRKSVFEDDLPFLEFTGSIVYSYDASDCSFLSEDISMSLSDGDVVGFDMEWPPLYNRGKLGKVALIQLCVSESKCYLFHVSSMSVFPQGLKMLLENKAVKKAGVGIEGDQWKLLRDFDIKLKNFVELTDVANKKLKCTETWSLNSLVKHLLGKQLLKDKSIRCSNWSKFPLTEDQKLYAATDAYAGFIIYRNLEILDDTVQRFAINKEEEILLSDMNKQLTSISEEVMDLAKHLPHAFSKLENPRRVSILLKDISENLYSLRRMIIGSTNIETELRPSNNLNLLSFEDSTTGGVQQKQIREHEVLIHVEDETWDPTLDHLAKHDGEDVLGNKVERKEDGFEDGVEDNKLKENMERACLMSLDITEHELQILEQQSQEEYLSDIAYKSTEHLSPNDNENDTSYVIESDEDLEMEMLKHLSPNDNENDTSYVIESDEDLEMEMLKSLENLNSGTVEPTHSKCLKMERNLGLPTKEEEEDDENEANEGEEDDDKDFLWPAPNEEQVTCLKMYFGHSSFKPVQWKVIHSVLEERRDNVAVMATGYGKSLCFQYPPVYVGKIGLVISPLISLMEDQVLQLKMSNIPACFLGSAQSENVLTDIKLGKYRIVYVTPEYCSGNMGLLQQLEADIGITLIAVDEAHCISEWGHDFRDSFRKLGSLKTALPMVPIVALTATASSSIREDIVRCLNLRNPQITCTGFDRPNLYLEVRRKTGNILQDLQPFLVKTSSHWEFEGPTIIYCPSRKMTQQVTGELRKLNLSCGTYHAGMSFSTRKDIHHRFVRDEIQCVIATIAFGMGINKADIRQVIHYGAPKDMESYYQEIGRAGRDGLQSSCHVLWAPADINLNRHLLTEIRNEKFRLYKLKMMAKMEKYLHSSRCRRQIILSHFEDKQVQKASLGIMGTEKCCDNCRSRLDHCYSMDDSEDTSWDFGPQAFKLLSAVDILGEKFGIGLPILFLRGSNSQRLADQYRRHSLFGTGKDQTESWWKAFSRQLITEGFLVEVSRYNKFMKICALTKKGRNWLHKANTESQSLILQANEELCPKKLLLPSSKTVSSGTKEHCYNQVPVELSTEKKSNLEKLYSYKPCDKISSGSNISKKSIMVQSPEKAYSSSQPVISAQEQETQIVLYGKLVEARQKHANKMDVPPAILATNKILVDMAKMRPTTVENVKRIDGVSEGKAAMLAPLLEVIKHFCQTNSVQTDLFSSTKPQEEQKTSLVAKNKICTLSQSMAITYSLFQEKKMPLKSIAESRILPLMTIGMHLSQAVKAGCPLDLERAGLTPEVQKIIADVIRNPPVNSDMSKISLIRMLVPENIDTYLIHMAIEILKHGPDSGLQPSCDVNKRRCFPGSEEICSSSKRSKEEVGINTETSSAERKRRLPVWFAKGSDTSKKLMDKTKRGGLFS
UniProt Q969T9: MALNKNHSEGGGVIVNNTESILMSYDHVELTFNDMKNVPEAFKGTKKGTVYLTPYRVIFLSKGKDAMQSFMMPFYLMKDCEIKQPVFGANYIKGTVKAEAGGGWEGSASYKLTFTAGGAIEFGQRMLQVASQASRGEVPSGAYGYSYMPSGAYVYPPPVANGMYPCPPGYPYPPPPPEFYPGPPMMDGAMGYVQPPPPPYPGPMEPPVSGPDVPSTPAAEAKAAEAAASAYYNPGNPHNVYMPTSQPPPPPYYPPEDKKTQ
UniProt Q8N2E2: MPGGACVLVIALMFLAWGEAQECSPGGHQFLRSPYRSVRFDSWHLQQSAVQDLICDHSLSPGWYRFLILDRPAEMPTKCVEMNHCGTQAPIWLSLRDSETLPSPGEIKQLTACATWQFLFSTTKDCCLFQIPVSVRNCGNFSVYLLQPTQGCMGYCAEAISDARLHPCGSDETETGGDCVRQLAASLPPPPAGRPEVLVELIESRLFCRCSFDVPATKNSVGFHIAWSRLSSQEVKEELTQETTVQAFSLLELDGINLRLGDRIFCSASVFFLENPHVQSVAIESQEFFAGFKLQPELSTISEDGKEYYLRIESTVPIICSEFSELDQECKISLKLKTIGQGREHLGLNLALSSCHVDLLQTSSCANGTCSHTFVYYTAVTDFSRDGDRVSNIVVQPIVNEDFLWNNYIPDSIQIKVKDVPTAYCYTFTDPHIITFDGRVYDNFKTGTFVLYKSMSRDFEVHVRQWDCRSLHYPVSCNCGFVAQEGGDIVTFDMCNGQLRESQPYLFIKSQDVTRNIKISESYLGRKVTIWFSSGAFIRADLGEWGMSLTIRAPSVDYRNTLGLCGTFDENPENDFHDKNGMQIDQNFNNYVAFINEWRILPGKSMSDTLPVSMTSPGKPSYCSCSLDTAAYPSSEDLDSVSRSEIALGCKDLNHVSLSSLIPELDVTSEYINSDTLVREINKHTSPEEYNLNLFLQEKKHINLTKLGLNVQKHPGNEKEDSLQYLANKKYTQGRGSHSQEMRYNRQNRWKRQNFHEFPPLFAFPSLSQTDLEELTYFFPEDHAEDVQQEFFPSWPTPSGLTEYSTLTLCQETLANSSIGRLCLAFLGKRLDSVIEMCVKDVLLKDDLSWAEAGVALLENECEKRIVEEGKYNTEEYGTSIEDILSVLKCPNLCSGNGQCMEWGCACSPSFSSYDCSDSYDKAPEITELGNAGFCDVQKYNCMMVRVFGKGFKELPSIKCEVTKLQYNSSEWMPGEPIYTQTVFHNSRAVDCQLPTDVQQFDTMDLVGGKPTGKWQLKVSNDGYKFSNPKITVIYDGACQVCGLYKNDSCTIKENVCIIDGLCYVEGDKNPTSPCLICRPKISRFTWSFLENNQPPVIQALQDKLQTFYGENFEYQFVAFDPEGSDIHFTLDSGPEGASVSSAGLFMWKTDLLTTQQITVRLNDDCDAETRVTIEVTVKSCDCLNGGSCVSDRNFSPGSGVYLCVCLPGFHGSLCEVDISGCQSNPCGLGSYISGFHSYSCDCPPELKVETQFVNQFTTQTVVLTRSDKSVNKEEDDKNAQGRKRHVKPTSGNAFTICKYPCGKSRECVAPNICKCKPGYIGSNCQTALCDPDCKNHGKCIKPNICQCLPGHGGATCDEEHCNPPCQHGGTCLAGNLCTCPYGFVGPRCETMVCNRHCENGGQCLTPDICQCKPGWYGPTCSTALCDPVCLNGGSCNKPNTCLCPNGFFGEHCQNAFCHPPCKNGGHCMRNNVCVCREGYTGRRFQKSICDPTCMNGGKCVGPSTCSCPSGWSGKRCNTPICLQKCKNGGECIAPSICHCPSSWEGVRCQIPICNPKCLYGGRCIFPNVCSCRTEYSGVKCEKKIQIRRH
UniProt P23025: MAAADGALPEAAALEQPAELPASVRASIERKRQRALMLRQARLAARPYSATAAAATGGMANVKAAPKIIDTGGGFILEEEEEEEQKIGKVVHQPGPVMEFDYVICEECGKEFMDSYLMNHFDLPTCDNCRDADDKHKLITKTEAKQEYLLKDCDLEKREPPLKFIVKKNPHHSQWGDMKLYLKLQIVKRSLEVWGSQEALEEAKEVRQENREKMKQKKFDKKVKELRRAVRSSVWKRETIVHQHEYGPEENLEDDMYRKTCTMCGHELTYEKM
UniProt A5D8V6: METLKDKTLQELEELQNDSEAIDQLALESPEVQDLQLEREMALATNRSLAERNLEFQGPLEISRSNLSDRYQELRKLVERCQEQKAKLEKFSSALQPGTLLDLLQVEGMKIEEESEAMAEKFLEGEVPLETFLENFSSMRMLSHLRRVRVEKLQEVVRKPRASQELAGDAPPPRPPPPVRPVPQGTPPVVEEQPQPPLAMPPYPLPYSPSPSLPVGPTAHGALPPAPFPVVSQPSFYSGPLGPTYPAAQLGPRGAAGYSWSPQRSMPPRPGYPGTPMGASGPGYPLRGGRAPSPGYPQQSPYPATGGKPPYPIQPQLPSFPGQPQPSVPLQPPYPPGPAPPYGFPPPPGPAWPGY

Assays:
Experiment in all cases: log2 fold change, soluble protein after heating vs DMSO (PISA); higher = thermal stabilisation; K562 lysate, 10 uM; active = over 0.2 and 3.5 SD of the protein, either way, in both replicates (recomputed)
[1] = compound: Cc1cn(-c2cc(NC(=O)c3ccc(C)c(Nc4nccc(-c5cccnc5)n4)c3)cc(C(F)(F)F)c2)cn1 [nilotinib]
Summary of the method: (§1)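 Quantification was by TMTpro 16plex LC-MS/MS with equalised channel sums, applied to the supernatant after 21,000xg for 90 min. Samples were crude K562 extract at 1 mg/mL protein in PBS pH 7.4 with 1 mM MgCl2, treated with 10 μM compound for 30 min, heated for 3 min across 48°C-58°C, pooled and brought to 0.5% NP-40 at 4°C. Values are log-two fold changes in thermal stability relative to solvent controls, from duplicates.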

[2] = compound: Cc1nc(Nc2n[nH]c3c2CN(C(=O)N[C@H](CN(C)C)c2ccccc2)C3(C)C)c2sccc2n1
Summary of the method: as §1

[3] = compound: Cc1nc(Nc2ncc(C(=O)Nc3c(C)cccc3Cl)s2)cc(N2CCN(CCO)CC2)n1 [dasatinib]
Summary of the method: as §1

[4] = compound: Cc1ncc(-c2ccnc(Nc3ccc(S(C)(=O)=O)cc3)n2)n1C(C)C
Summary of the method: as §1

[5] = compound: Cn1cc(-c2ccc3c(c2)CCN3C(=O)Cc2cccc(C(F)(F)F)c2)c2c(N)ncnc21
Summary of the method: as §1

[6] = compound: Cn1cc(CNCC2CCN(c3ncc(C(=O)NO)cn3)CC2)c2ccccc21 [quisinostat]
Summary of the method: as §1

[7] = compound: Cn1cncc1[C@@](N)(c1ccc(Cl)cc1)c1ccc2c(c1)c(-c1cccc(Cl)c1)cc(=O)n2C [tipifarnib]
Summary of the method: as §1

[8] = compound: NC(=O)Nc1cc(-c2cccc(F)c2)sc1C(=O)N[C@H]1CCCNC1
Summary of the method: as §1

[9] = compound: NC(=O)c1cnc(N[C@@H]2CCCC[C@@H]2N)nc1Nc1cccc(-n2nccn2)c1
Summary of the method: as §1

[10] = compound: NC1(c2ccc(-c3nc4ccn5c(=O)[nH]nc5c4cc3-c3ccccc3)cc2)CCC1
Summary of the method: as §1

[11] = compound: NCC(=O)Nc1ccc(-n2nc(C(F)(F)F)cc2-c2ccc3c(ccc4ccccc43)c2)cc1
Summary of the method: as §1

[12] = compound: O=C(CCCCCCC(=O)Nc1ccccc1)NO [vorinostat]
Summary of the method: as §1

[13] = compound: O=C(O)c1ccc2c(c1)nc(Nc1cccc(Cl)c1)c1ccncc12 [silmitasertib]
Summary of the method: as §1

[14] = compound: O=C1NC(=O)C(c2cnc3ccccn23)=C1c1cn2c3c(cc(F)cc13)CN(C(=O)N1CCCCC1)CC2
Summary of the method: as §1

[15] = compound: c1cn2cc(-c3ccc4cn[nH]c4c3)nc(Nc3ccc(N4CCOCC4)cc3)c2n1 [entospletinib]
Summary of the method: as §1

Measured: log2 fold change

VPS25 (UniProt Q9BRG1)
inactive: [1] -0.006 | [2] 0.008 | [3] 0.01 | [4] -0.074 | [5] -0.007 | [6] 0.027 | [7] 0.036 | [8] 0.006 | [9] -0.006 | [10] -0.004 | [11] -0.045 | [12] 0.056 | [13] -0.023 | [14] 0.003 | [15] 0.001

XPC (UniProt Q01831)
inactive: [1] 0.088 | [2] -0.116 | [3] -0.007 | [4] 0.006 | [5] -0.001 | [6] -0.069 | [7] -0.122 | [8] 0.068 | [9] -0.005 | [10] -0.055 | [11] 0.023 | [12] 0.07 | [13] -0.014 | [14] 0.087 | [15] -0.028

WRN (UniProt Q14191)
active: [12] -0.282
inactive: [1] -0.027 | [2] -0.018 | [3] -0.108 | [4] -0.004 | [5] 0.022 | [6] -0.042 | [7] -0.005 | [8] 0.03 | [9] 0.089 | [10] -0.013 | [11] 0.003 | [13] 0.035 | [14] -0.013 | [15] -0.005

WBP2 (UniProt Q969T9)
inactive: [1] 0.021 | [2] 0.03 | [3] 0.056 | [4] -0.012 | [5] -0.015 | [6] 0.085 | [7] 0.042 | [8] -0.025 | [9] -0.015 | [10] -0.025 | [11] -0.004 | [12] 0.136 | [13] -0.017 | [14] 0.021 | [15] 0.05

VWDE (UniProt Q8N2E2)
inactive: [1] 0.01 | [2] -0.003 | [3] -0.037 | [4] -0.072 | [5] 0.009 | [6] -0.066 | [7] -0.013 | [8] 0.058 | [9] -0.05 | [10] -0.035 | [11] -0.014 | [12] -0.023 | [13] -0.011 | [14] 0.002 | [15] -0.072

XPA (UniProt P23025)
inactive: [1] 0.021 | [2] -0.04 | [3] -0.067 | [4] 0.106 | [5] -0.035 | [6] 0.029 | [7] -0.052 | [8] -0.026 | [9] 0.016 | [10] -0.005 | [11] -0.026 | [12] 0.047 | [13] -0.012 | [14] 0.053 | [15] 0.014

WDR61 (UniProt Q9GZS3)
inactive: [1] -0.019 | [2] -0.031 | [3] -0.071 | [4] -0.069 | [5] 0.004 | [6] -0.011 | [7] 0.026 | [8] -0.016 | [9] -0.008 | [10] -0.053 | [11] -0.014 | [12] 0.025 | [13] -0.008 | [14] 0.016 | [15] 0.011

VPS37C (UniProt A5D8V6)
inactive: [1] -0.011 | [2] 0.088 | [3] -0.091 | [4] -0.018 | [5] -0.064 | [6] 0.027 | [7] 0.003 | [8] -0.01 | [9] 0.02 | [10] 0.067 | [11] 0.039 | [12] 0.066 | [13] -0.019 | [14] 0.022 | [15] -0.127
